Assay results taken from patent publication US20260116921A1 (priority 2018, published 2026).

Key:
[1] = general procedure: Fmoc solid-phase peptide synthesis; Rink Amide MBHA; HBTU/DIEA (PyAOP/DIEA for some couplings); Oxyma/DIC; details: whole synthesis, scale 6.66 mmol, acetate salt
[2] = general procedure: Fmoc solid-phase peptide synthesis; Rink Amide MBHA resin (0.57 or 0.66 mmol/g) for C-terminal amides; pre-loaded Wang resin for C-terminal acids; HBTU/DIEA (PyAOP/DIEA for some couplings); Oxyma/DIC; details: whole synthesis, scale 6.66 mmol

Q: Which isolated mass [1] does the source give for “Ac-[Pen]-NT-[W(7-Me)]-[Lys(Ac)]-[Pen]-Phe[4-(2-aminoethoxy)]-[2-Nal]-[α-MeLys]-[Lys(Ac)]-N-[(D)Lys]-NH2” here?
A: 3.24 g

Q: And the “final HPLC purity” value ([2]; analytical RP-HPLC, acetate salt)?
A: 97%

Q: What about the isolated yield ([2]; overall, acetate salt) of the same substance?
A: ˜25%

Q: And the isolated mass ([2]; TFA salt)?
A: 3.83 g
